This experiment has as its target MHC-II molecule I-A^b (mouse (endogenous in BMDCs)). Nature of the experiment: flow cytometry on cells. In general terms: Flow cytometry measures light scatter and fluorescence of single cells or particles in a stream.

These are yes or no findings as the source states them, for the method shown. Binding can be weak; no strength is given.

For the molecule ASFEAQGALANIAVDKA [Eα_(52-68) peptide], the binding entry is listed as “binds”.

The values above are taken from doi:10.1101/2020.01.22.915017.
